Measurements as given in article PMC9763423.
Results are given in words; binding and its absence hold for the method and conditions named. In cells and extracts the contact can be indirect. Some binding calls cover weakened binding; strength is not graded here. Values belong to the binder of their own block, whether it stands above or below them.

The chains behind the UniProt entries cited, without tags or fusion partners.
UniProt Q07820: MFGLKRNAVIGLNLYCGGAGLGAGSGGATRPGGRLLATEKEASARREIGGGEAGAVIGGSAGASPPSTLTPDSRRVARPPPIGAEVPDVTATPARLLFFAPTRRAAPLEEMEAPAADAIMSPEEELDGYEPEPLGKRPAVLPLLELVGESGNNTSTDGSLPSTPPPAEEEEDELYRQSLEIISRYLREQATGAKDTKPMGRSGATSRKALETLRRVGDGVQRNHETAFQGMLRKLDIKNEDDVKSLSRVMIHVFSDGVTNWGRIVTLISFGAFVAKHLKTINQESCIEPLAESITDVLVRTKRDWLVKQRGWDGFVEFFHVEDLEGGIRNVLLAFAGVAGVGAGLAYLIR

Assays:
[1] = molecular target: myeloid cell leukemia-1 (MCL-1) (human (endogenous in CAL27R)), Q07820; experiment: co-IP; endogenous MCL-1 and deubiquitinases, CAL27R sgCtrl and TRAF4 knockout cells treated with/without IR (2 Gy) for 20 min; primary antibody and Protein A/G agarose beads, immunoblot; conditions: remark: other sources report otherwise
[2] = molecular target: myeloid cell leukemia-1 (MCL-1) (human (endogenous in CAL27R)) (UniProt Q07820); experiment: as above

- binding [1]: binds
B1: USP13, Q92995 1-863 (enzyme)
chain: MQRRGALFGMPGGSGGRKMAAGDIGELLVPHMPTIRVPRSGDRVYKNECAFSYDSPNSEGGLYVCMNTFLAFGREHVERHFRKTGQSVYMHLKRHVREKVRGASGGALPKRRNSKIFLDLDTDDDLNSDDYEYEDEAKLVIFPDHYEIALPNIEELPALVTIACDAVLSSKSPYRKQDPDTWENELPVSKYANNLTQLDNGVRIPPSGWKCARCDLRENLWLNLTDGSVLCGKWFFDSSGGNGHALEHYRDMGYPLAVKLGTITPDGADVYSFQEEEPVLDPHLAKHLAHFGIDMLHMHGTENGLQDNDIKLRVSEWEVIQESGTKLKPMYGPGYTGLKNLGNSCYLSSVMQAIFSIPEFQRAYVGNLPRIFDYSPLDPTQDFNTQMTKLGHGLLSGQYSKPPVKSELIEQVMKEEHKPQQNGISPRMFKAFVSKSHPEFSSNRQQDAQEFFLHLVNLVERNRIGSENPSDVFRFLVEERIQCCQTRKVRYTERVDYLMQLPVAMEAATNKDELIAYELTRREAEANRRPLPELVRAKIPFSACLQAFSEPENVDDFWSSALQAKSAGVKTSRFASFPEYLVVQIKKFTFGLDWVPKKFDVSIDMPDLLDINHLRARGLQPGEEELPDISPPIVIPDDSKDRLMNQLIDPSDIDESSVMQLAEMGFPLEACRKAVYFTGNMGAEVAFNWIIVHMEEPDFAEPLTMPGYGGAASAGASVFGASGLDNQPPEEIVAIITSMGFQRNQAIQALRATNNNLERALDWIFSHPEFEEDSDFVIEMENNANANIISEAKPEGPRVKDGSGTYELFAFISHMGTSTMSGHYICHIKKEGRWVIYNDHKVCASERPPKDLGYMYFYRRIPS

- binding [2]: binds
B2: DUB3 (enzyme, UniProt Q6R6M4 1-530)
chain: MEDDSLYLGGEWQFNHFSKLTSSRPDAAFAEIQRTSLPEKSPLSSEARVDLCDDLAPVARQLAPRKKLPLSSRRPAAVGAGLQNMGNTCYENASLQCLTYTPPLANYMLSREHSQTCQRPKCCMLCTMQAHITWALHSPGHVIQPSQALAAGFHRGKQEDAHEFLMFTVDAMKKACLPGHKQVDHHSKDTTLIHQIFGGCWRSQIKCLHCHGISDTFDPYLDIALDIQAAQSVKQALEQLVKPEELNGENAYHCGLCLQRAPASKTLTLHTSAKVLILVLKRFSDVTGNKLAKNVQYPECLDMQPYMSQQNTGPLVYVLYAVLVHAGWSCHDGHYFSYVKAQEGQWYKMDDAKVTACSITSVLSQQAYVLFYIQKSEWERHSESVSRGREPRALGAEDTDRRATQGELKRDHPCLQAPELDERLVERATQESTLDHWKFPQEQNKTKPEFNVRKVEGTLPPNVLVIHQSKYKCGMKNHHPEQQSSLLNLSSTTRTDQESVNTGTLASLQGRTRRSKGKNKHSKRALLVCQ
